PubChem BioAssay AID504804 – Drosophila RNAi Screening Center – 2011
Assay: 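Knock-downs shielding fly cells from apoptosis caused by DNA damage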 (primary screen). Cell system: Drosophila Kc cells. Reagents: long dsRNA against Drosophila genes, 0.5 µg dsRNA per well. Duration: 96 h (48 h knock-down, then 48 h drug). Treatment: doxorubicin 5 µg/ml for 48 h, added 48 h after dsRNA. Detection: 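Viability measured as cellular ATP by luminescence after 48 h knock-down then 48 h doxorubicin at 5 µg/ml; unnormalised plate counts for each replicate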. Direction: raw ATP luminescence: higher = more viable cells, protection from doxorubicin. Call rule: 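z-score of 2 or more over plate mean in both duplicates, retained only when retests and separate dsRNAs confirm the protection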.
In all, the deposit lists about 19,000 reagents; shown is a random part of those that have a named target and a result. In the full data, 47 (0.25%) are marked active. 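Signals are raw, not normalised; exact z-scores behind calls not deposited; actives needed confirmation, so some wells reaching 2 SD are inactive.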 Names joined by + are all predicted targets of the reagent.

The opening 2 records, ahead of the listing:
no.	gene	amplicon	raw ATP luminescence, replicate 1	raw ATP luminescence, replicate 2	Outcome
1	CG7606	DRSC13246	1.30e5	1.80e5	inactive
2	CG7606	DRSC16268	80230	88440	inactive

Results, from the start:
no.	gene	amplicon	raw ATP luminescence, replicate 1	raw ATP luminescence, replicate 2	Outcome
1	CG7606	DRSC13246	1.30e5	1.80e5	inactive
2	CG7606	DRSC16268	80230	88440	inactive
3	frac (faulty attraction)	DRSC10867	45030	45833	inactive
4	IP3K1 (Inositol 1,4,5-triphosphate kinase 1)	DRSC02734	70617	60050	inactive
5	Rpt3R (Regulatory particle triple-A ATPase 3-related)	DRSC16501	49760	55657	inactive
6	Ih (I[[h]] channel)	DRSC07445	64273	68067	inactive
7	CG6761	DRSC10705	42403	33403	inactive
8	CG11585	DRSC19410	4.16e5	3.72e5	inactive
9	CG3246	DRSC00584	38437	43850	inactive
10	Prat (Phosphoribosylamidotransferase)	DRSC16797	46230	54543	inactive
11	PPP4R2r (Protein phosphatase 4 regulatory subunit 2-related protein)	DRSC18695	3.48e5	3.59e5	inactive
12	CG17230	DRSC15203	40260	30753	inactive
13	Mal-A2 (Maltase A2)	DRSC07460	52027	71173	inactive
14	CG33259	DRSC10854	56460	35660	inactive
15	Ilp1 (Insulin-like peptide 1)	DRSC10174	60850	73597	inactive
16	beat-IIIc (beaten path IIIc)	DRSC02438	80353	99070	inactive
17	beat-IIIc (beaten path IIIc)	DRSC02949	60760	94853	inactive
18	Nthl1 (Nth-like DNA glycosylase 1)	DRSC03183	48527	32967	inactive
19	sals (sarcomere length short)	DRSC14925	48690	28267	inactive
20	sals (sarcomere length short)	DRSC16113	50060	48630	inactive
21	CG34045	DRSC05787	1.06e5	59807	inactive
22	CG17996 + Tsen2	DRSC02650	73550	57307	inactive
23	kel (kelch)	DRSC03554	80063	68220	inactive
24	TwdlY (TweedleY)	DRSC19153	1.94e5	2.00e5	inactive
25	hng2 (hinge2)	DRSC16412	62410	58073	inactive
26	y (yellow)	DRSC18853	48470	59860	inactive
27	Fum3 (Fumarase 3)	DRSC10592	72447	66653	inactive
28	Rsph4a (Radial spoke head protein 4a)	DRSC04338	72410	84003	inactive
29	CG33631	DRSC12763	67877	59167	inactive
30	CG7970	DRSC08605	47133	71703	inactive
31	CG7900	DRSC16336	45810	46303	inactive
32	ena (enabled)	DRSC05779	95403	58677	inactive
33	ena (enabled)	DRSC07610	56127	81347	inactive
34	Rad17	DRSC16811	70100	84030	inactive
35	CG14556	DRSC14899	54270	58570	inactive
36	mRpS23 (mitochondrial ribosomal protein S23)	DRSC01348	2.26e5	2.34e5	inactive
37	Rtel1 (Regulator of telomere elongation helicase 1)	DRSC18343	45370	47010	inactive
38	nAChRalpha1 (nicotinic Acetylcholine Receptor alpha1)	DRSC13664	73780	82560	inactive
39	nAChRalpha1 (nicotinic Acetylcholine Receptor alpha1)	DRSC13670	47817	53147	inactive
40	nAChRalpha1 (nicotinic Acetylcholine Receptor alpha1)	DRSC13672	2.70e5	2.85e5	inactive
41	nAChRalpha1 (nicotinic Acetylcholine Receptor alpha1)	DRSC17008	68890	56450	inactive
42	CG18789	DRSC02696	58403	91177	inactive
43	CG4962	DRSC10464	55637	44457	inactive
44	RpS7 (Ribosomal protein S7)	DRSC15394	20740	26820	inactive
45	Art6 (Arginine methyltransferase 6)	DRSC16583	76200	69650	inactive
46	CG15456	DRSC20527	4.65e5	3.35e5	inactive
47	CG13511	DRSC04153	52477	64853	inactive
48	CG8708	DRSC07240	76673	58940	inactive
49	Sfp93F (Seminal fluid protein 93F)	DRSC13505	1.43e5	1.63e5	inactive
50	da	DRSC03517	44660	85943	inactive
51	Ugt37A1 (UDP-glycosyltransferase family 37 member A1)	DRSC02114	58993	47787	inactive
52	CG8547	DRSC07211	74577	70507	inactive
53	EcR (Ecdysone receptor)	DRSC04906	42807	48717	inactive
54	EcR (Ecdysone receptor)	DRSC04910	73787	68970	inactive
55	7B2	DRSC11991	58227	62920	inactive
56	sog (short gastrulation)	DRSC20379	2.93e5	2.20e5	inactive
57	Fit1 (Fermitin 1)	DRSC08450	35043	42670	inactive
